From paper PMC12159841
These are yes or no findings as the source states them, for the method shown. In cells and extracts the contact can be indirect. Some binding calls cover weakened binding; strength is not graded here.

B1: CD44 (receptor, UniProt P15379 23-778)
chain: QIDLNVTCRYAGVFHVEKNGRYSISRTEAADLCQAFNSTLPTMDQMKLALSKGFETCRYGFIEGNVVIPRIHPNAICAANHTGVYILVTSNTSHYDTYCFNASAPPEEDCTSVTDLPNSFDGPVTITIVNRDGTRYSKKGEYRTHQEDIDASNIIDDDVSSGSTIEKSTPEGYILHTYLPTEQPTGDQDDSFFIRSTLATIASTVHSKSHAAAQKQNNWIWSWFGNSQSTTQTQEPTTSATTALMTTPETPPKRQEAQNWFSWLFQPSESKSHLHTTTKMPGTESNTNPTGWEPNEENEDETDTYPSFSGSGIDDDEDFISSTIATTPRVSARTEDNQDWTQWKPNHSNPEVLLQTTTRMADIDRISTSAHGENWTPEPQPPFNNHEYQDEEETPHATSTTPNSTAEAAATQQETWFQNGWQGKNPPTPSEDSHVTEGTTASAHNNHPSQRITTQSQEDVSWTDFFDPISHPMGQGHQTESKDTDSSHSTTLQPTAAPNTHLVEDLNRTGPLSVTTPQSHSQNFSTLHGEPEEDENYPTTSILPSSTKSSAKDARRGGSLPTDTTTSVEGYTFQYPDTMENGTLFPVTPAKTEVFGETEVTLATDSNVNVDGSLPGDRDSSKDSRGSSRTVTHGSELAGHSSANQDSGVTTTSGPMRRPQIPEWLIILASLLALALILAVCIAVNSRRRCGQKKKLVINGGNGTVEDRKPSELNGEASKSQEMVHLVNKEPSETPDQCMTADETRNLQSVDMKIGV
B2: Tissue kallikrein-related peptidase 8 (KLK8) (enzyme, UniProt Q61955 33-260)
chain: ILEGRECIPHSQPWQAALFQGERLICGGVLVGDRWVLTAAHCKKQKYSVRLGDHSLQSRDQPEQEIQVAQSIQHPCYNNSNPEDHSHDIMLIRLQNSANLGDKVKPVQLANLCPKVGQKCIISGWGTVTSPQENFPNTLNCAEVKIYSQNKCERAYPGKITEGMVCAGSSNGADTCQGDSGGPLVCDGMLQGITSWGSDPCGKPEKPGVYTKICRYTTWIKKTMDNRD

Legend:
[1] = molecular target: T1, Tissue kallikrein-related peptidase 8 (KLK8) (UniProt Q61955); assay: co-IP; BV2 cell lysates (RIPA buffer) incubated with antibodies against KLK8 or CD44 at 4 °C for 16 h, protein A and G sepharose beads, four washes, western blot; IgG as control
T1 sequence: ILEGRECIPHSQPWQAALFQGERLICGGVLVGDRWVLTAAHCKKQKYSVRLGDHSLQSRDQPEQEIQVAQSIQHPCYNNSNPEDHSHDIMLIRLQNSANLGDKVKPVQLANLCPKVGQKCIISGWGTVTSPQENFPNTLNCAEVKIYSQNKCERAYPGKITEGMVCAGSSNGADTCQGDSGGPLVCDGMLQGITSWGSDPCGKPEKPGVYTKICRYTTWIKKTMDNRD

[2] = molecular target: T2, CD44 (mouse (endogenous in BV2)) (UniProt P15379); assay: as above
T2 sequence: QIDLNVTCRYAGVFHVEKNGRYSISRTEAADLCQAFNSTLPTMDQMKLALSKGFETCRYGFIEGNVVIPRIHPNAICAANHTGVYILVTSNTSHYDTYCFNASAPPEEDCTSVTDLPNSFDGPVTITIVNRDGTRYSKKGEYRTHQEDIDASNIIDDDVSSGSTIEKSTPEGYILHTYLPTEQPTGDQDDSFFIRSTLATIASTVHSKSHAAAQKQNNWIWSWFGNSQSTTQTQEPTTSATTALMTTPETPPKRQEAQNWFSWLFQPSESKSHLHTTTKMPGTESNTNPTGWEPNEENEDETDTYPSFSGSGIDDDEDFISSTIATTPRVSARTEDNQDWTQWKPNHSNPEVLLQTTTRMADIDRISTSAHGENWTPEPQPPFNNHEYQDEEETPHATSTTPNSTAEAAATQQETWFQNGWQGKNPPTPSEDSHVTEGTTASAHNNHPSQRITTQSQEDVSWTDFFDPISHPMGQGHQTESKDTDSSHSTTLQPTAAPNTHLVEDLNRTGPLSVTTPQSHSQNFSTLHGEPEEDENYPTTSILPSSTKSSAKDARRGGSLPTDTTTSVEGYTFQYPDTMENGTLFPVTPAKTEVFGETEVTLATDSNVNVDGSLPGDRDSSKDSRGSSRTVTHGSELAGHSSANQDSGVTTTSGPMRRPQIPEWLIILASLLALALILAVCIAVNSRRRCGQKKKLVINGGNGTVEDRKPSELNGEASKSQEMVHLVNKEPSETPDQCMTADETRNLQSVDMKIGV

Binder	binding [1]	binding [2]
B1	binds	
B2		binds
